# Reference: article doi:10.1101/2021.02.24.432555
# Protein sequences, listed by entry. Tags and fused reporters are not part of them. Lines headed by an entry give the natural chain unless they say otherwise; changes in a name come on top.
# UniProt P18850: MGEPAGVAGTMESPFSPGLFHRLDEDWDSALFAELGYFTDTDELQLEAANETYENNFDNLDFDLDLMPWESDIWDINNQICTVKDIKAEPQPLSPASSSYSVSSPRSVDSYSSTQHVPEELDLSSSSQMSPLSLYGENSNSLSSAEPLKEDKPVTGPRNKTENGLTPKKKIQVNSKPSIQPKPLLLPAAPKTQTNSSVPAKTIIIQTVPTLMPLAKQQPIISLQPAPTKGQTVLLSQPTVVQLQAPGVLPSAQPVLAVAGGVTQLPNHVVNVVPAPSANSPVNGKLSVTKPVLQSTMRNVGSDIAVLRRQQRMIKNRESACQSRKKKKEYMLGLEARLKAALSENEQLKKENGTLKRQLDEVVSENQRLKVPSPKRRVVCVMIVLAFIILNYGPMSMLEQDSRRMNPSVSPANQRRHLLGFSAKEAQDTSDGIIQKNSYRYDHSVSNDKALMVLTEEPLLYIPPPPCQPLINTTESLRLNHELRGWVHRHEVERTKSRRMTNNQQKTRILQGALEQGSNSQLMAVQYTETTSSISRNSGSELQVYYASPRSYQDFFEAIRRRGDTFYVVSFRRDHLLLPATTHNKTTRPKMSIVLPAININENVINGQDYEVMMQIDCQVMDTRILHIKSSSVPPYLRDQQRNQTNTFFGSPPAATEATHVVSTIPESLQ
# UniProt Q13547: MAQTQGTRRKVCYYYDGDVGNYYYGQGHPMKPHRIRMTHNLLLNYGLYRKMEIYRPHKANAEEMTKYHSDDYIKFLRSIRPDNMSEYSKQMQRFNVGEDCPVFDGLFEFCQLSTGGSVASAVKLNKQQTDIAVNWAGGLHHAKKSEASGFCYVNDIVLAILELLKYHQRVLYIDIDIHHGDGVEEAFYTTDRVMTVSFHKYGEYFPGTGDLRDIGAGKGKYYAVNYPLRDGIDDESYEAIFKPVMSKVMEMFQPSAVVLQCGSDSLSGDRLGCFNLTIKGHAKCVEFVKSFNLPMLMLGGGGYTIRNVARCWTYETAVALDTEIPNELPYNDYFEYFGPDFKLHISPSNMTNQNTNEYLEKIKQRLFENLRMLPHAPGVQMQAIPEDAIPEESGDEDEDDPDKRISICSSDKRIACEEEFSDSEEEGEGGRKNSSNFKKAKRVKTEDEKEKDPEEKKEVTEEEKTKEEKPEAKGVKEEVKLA
# No constants are given. Whether binding was seen depends on the method and setting. Binding seen in cells or lysates may run through a third protein. Binding calls can cover weak binding; strength is not graded here.
# B1: ING2 (protein, UniProt Q9H160 1-280)
# chain: MLGQQQQQLYSSAALLTGERSRLLTCYVQDYLECVESLPHDMQRNVSVLRELDNKYQETLKEIDDVYEKYKKEDDLNQKKRLQQLLQRALINSQELGDEKIQIVTQMLELVENRARQMELHSQCFQDPAESERASDKAKMDSSQPERSSRRPRRQRTSESRDLCHMANGIEDCDDQPPKEKKSKSAKKKKRSKAKQEREASPVEFAIDPNEPTYCLCNQVSYGEMIGCDNEQCPIEWFHFSCVSLTYKPKGKWYCPKCRGDNEKTMDKSTEKTKKDRRSR
# Biological target: ATF6f (human (endogenous in HeLa)) (UniProt P18850)
# Experiment: co-IP
row,Molecule,binding
1,HDAC1 (from UniProt Q13547 1-482),binds
2,p97/VCP (from UniProt P55072 1-806),binds
3,B1,no binding
